Source: PubChem BioAssay AID493014 (National Center for Advancing Translational Sciences (NCATS), 2011)
The other results are listed elsewhere or left out. Shown are side measurements of this screen, not its main read-out; they come without a call. The list favours compounds with an active or inconclusive main result. Words in brackets tell the shape of the fitted curve; partial curves, single points and poor fits give uncertain potencies.

Test: qHTS Assay to Find Inhibitors of Chronic Active B-Cell Receptor Signaling
Details: ABC-DLBCL IkBa-CBG/CBR reporter, luminescence ratio (green luciferase fused to IkBa over red control in TMD8 lymphoma cells), 4 h
Outline: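 Doxycycline induced both beetle luciferases in TMD8 lymphoma cells; IKK-driven degradation limits the IkappaBalpha-fused green signal, while red luminescence normalises for cell number and nonspecific effects. Compounds tested up to 46 uM, 4 hrs.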

[1] = measured here: IkBa-CBG green luminescence
[2] = measured here: CBR red luminescence, cell number

| SMILES | AC50 [1] | AC50 [2] |
| --- | --- | --- |
| C=CCN(CC=C)S(=O)(=O)c1ccc2nc(NC(=O)C(C)C)sc2c1 | 23.1 µM [falling, single point] |  |
| Cc1noc(C)c1C(=O)N1CCN(C(=O)c2sc3cc(Cl)ccc3c2Cl)CC1 |  | 32.6 µM [falling, single point] |
| C/C(=N\NC(=O)c1ccccc1NC(=O)c1ccc(Cl)cc1)c1ccncc1 | 0.794 µM [rising, full curve, poor fit] | 0.794 µM [falling, full curve] |
| NS(=O)(=O)c1cccc(NC(=O)CSc2nc3ccccc3n2-c2ccccc2)c1 |  | 12.6 µM [falling, partial curve] |
| CCn1c(CNc2ccc(Cl)cc2)nnc1SCc1ccc(C)cc1 |  | 11.6 µM [falling, partial curve, poor fit] |
| Cc1ccc(S(=O)(=O)NC(C)(C)CSc2nncn2C)cc1 |  | 16.4 µM [rising, partial curve] |
| N#C/C(=C\c1ccc(Br)s1)C(=O)N1CCN(c2ccccc2)CC1 |  | 3.26 µM [rising, partial curve, poor fit] |
| O=C(NC(=S)N1CCN(c2ccc(Cl)cc2[N+](=O)[O-])CC1)c1cccs1 | 4.11 µM [falling, full curve] | 4.11 µM [rising, full curve, poor fit] |
| CCOC(=O)c1c(NC(=O)CSc2nnc(-c3ccncc3)n2Cc2ccco2)sc(C)c1C |  | 23.1 µM [falling, partial curve, poor fit] |
| O=C(Nc1ccc(N2CCCCC2)cc1)c1cccnc1Cl |  | 10.3 µM [falling, partial curve, poor fit] |
| COc1ccc(CNC(=O)c2csc(Cc3ccc(Cl)cc3)n2)cc1 |  | 15.8 µM [falling, single point] |
| Cc1ccccc1Nc1nc(-c2ccccc2)c(C(=O)Nc2cccnc2)s1 |  | 2.91 µM [falling, partial curve, poor fit] |
| O=C(OCc1c(-c2ccccc2)ncc2ccccc12)c1ccco1 |  | 29.1 µM [falling, single point] |
| COCCOC(=O)c1nccnc1C(=O)Nc1ccc(S(=O)(=O)N2CCOCC2)cc1 |  | 35.5 µM [rising, single point] |
| O=C(CCc1nnc2ccc(NCc3ccco3)nn12)Nc1ccccc1F |  | 31.6 µM [falling, single point] |
| O=C1c2ccccc2C(=O)N1CCC1=CCCCC1 |  | 0.92 µM [rising, full curve, poor fit] |
| CN(C)S(=O)(=O)c1ccc(C(=O)NC2CCCc3ccccc32)cc1 (centres undefined) |  | 3.98 µM [falling, full curve, poor fit] |

Single values from above.
`NS(=O)(=O)c1cccc(NC(=O)CSc2nc3ccccc3n2-c2ccccc2)c1` – AC50 [2]: 12.6 µM [falling, partial curve]
`O=C(OCc1c(-c2ccccc2)ncc2ccccc12)c1ccco1` – AC50 [2]: 29.1 µM [falling, single point]
